Results published in PubChem BioAssay AID588590 (National Center for Advancing Translational Sciences (NCATS), 2011).
Where “and” joins values, the source holds several entries; their conditions need not be identical. Identical values can stand only once. About 4,000 (1%) of roughly 390,000 compounds were called active. The inconclusive results got no clear call from the source; some entries with a clear call stand among them for comparison. The call rests on the fitted dose curve; in most records, active means well fitted inhibition curve with a large enough effect; inconclusive means small, poorly fitted or top-dose-only effect, or another doubt; inactive means no such curve, though single readings can be large or run the other way. Potencies of inconclusive entries are doubtful fits and often do not repeat.

By UniProt entry, the sequences of proteins in these tests, tags left out. Where a name states a change or a piece, a line headed by the entry shows the natural chain unless it says otherwise.
UniProt Q9UNA4: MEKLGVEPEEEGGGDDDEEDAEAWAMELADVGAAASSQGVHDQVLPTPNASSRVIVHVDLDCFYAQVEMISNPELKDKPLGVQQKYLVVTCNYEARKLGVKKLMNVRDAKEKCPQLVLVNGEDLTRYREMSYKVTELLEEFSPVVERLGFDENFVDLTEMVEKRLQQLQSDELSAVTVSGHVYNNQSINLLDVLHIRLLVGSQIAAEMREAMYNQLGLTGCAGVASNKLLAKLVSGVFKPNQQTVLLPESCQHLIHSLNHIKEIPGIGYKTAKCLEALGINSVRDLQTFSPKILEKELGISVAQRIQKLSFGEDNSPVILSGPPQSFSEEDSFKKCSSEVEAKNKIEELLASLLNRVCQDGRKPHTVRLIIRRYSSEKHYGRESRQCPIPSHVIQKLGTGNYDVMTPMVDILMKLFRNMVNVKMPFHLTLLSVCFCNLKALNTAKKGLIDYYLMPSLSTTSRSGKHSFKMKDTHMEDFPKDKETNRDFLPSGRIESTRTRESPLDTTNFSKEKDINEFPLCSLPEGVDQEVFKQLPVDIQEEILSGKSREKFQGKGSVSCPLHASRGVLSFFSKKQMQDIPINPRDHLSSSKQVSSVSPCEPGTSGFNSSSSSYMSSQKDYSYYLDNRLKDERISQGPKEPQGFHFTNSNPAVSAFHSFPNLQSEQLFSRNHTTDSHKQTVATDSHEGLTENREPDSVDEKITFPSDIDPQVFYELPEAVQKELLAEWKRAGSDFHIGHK

Molecular target: DNA polymerase iota (Homo sapiens) (UniProt Q9UNA4)
Test: qHTS for Inhibitors of Polymerase Iota
Details: Pol iota fluorescent replication assay, 10 min; series mostly up to 115 µM
Method in brief: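 Fluorescent replication assay read twice, at 0 min and 10 min after adding 50 nM (final) substrate. Enzyme (10 nM) and compounds were first incubated 15 min at room temperature; enzyme-free buffer wells were negative controls.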
Potency means the concentration at half of the fitted maximal effect.

Row | Compound | Potency
1 | COC(=O)C1=C(c2cccc(OC)c2OC)C[C@@H]2CC[C@H]1N2C(=O)NC1CCCCC1 | inactive
2 | Cc1ncoc1C(=O)NCCC(c1ccccc1)c1ccccc1 | inactive
3 | O=C(COc1ccc(Br)cc1)N1CCN(Cc2ccc3c(c2)OCO3)CC1 | inactive
4 | O=C(O)c1cccc2c1NC(c1cccc([N+](=O)[O-])c1)C1CC(Sc3ccccc3[N+](=O)[O-])C(Cl)C21 (stereo unspecified) | inconclusive: 44.7 µM [inhibitor, partial curve, poor fit]
5 | N#Cc1c(/N=C/c2c(O)n(Cc3ccco3)c(=O)[nH]c2=O)sc2c1CCCC2 | active: 10 µM
6 | Cc1cc(C=C2C(=O)NC(=O)NC2=O)c(C)n1-c1cccnc1 | inactive
7 | COC(=O)C1=C(c2ccc(F)cc2OCc2ccccc2)C[C@@H]2CC[C@H]1N2C(=O)NCc1ccc(OC)c(OC)c1 | inconclusive: 89.1 µM [inhibitor, single point]
8 | CC(=O)C12CC(C)=C(C)CC1CC1C3CCC4=CC(=O)CCC4(C)C3CCC12C (stereo unspecified) | inconclusive: 15.8 µM [inhibitor, partial curve, poor fit]
9 | COP(=O)(OC)/C(C=O)=N/Nc1ccc([N+](=O)[O-])cc1 | inactive
10 | Cn1c(O)c(C(=O)c2ccccc2F)c(=O)n(C)c1=O | inconclusive: 25.1 µM [inhibitor, single point]
11 | CC(=NCc1ccc2c(c1)OCO2)c1c(O)[nH]c(=O)[nH]c1=O | inconclusive: 39.8 µM [inhibitor, single point]
12 | CC(C)(C)n1cccc1/C=C1\C(=O)NC(=O)N(c2ccccc2)C1=O | inconclusive: 25.1 µM [inhibitor, partial curve, poor fit]
13 | Nc1nc(N)c2nc(CNc3ccc(C(=O)NC(CCC(=O)O)C(=O)O)cc3)cnc2n1 (stereo unspecified) | inconclusive: 89.1 µM [inhibitor, single point] and inconclusive: 35.5 µM [inhibitor, partial curve]
14 | CC(C)C12CN3CCN(CC(C3)/C1=N\O)C2 | inconclusive: 89.1 µM [inhibitor, single point]
15 | CC(N)[C@H](O)c1ccc(O)c(O)c1 (stereo partly specified) | active: 25.1 µM and active: 2.51 µM
16 | Cc1ncc(CNC(=O)N(CCCl)N=O)c(N)n1 | inconclusive: 20 µM [inhibitor, partial curve, poor fit]
17 | C[C@@H]1CC[C@@]2(OC1)O[C@H]1C[C@H]3[C@@H]4CC=C5C[C@@H](O)[C@H](O)C[C@]5(C)C4CC[C@]3(C)[C@H]1[C@@H]2C (stereo partly specified) | inconclusive: 63.1 µM [inhibitor, partial curve, poor fit]
18 | C#C[C@]1(O)CC[C@H]2[C@@H]3CCC4=Cc5nc6nc7ccccc7n6cc5C[C@]4(C)[C@H]3CC[C@@]21C | inconclusive: 14.1 µM [inhibitor, full curve, poor fit]
19 | C[n+]1ccc(-c2ccccc2)c2ccccc21 | inconclusive: 17.8 µM [inhibitor, single point]
20 | Cc1sc(-n2c(C)cc(C=C3C(=O)NC(=O)NC3=O)c2C)c(C#N)c1C | inconclusive: 12.6 µM [inhibitor, partial curve]
21 | CN1C(=O)C(Cc2ccccc2)C(=O)N(C)C1=O | inconclusive: 28.2 µM [inhibitor, partial curve, poor fit]

Row | Compound | Potency
22 | CN1C(=O)C(Cc2ccc(OCc3ccccc3)cc2)C(=O)N(C)C1=O | inactive
23 | O=C(N/N=C/c1c(O)n(Cc2ccccc2)c(=O)[nH]c1=O)c1ccccc1O | inactive
24 | C=CCN1C(=O)/C(=C/c2cc(C)n(-c3cccnc3)c2C)C(=O)NC1=S | inactive
25 | O=C(N/N=C/c1c(O)n(Cc2ccco2)c(=O)[nH]c1=O)c1ccccc1O | active: 28.2 µM
26 | CCc1ccc(NC(=O)CN2C(=O)C3(SCC(=O)N3c3ccc(F)c(F)c3)c3ccccc32)cc1 (stereo unspecified) | inconclusive: 1.78 µM [inhibitor, full curve, poor fit]
27 | CN1CCN(c2ccc([N+](=O)[O-])c3no[n+]([O-])c23)CC1 | active: 17.8 µM
28 | Cc1c(C(=O)O)cccc1-n1c(C)cc(/C=C2\C(=O)NC(=O)N(c3ccc4c(c3)OCO4)C2=O)c1C | inconclusive: 3.16 µM [inhibitor, full curve, poor fit]
29 | CC1CCN(C(=O)c2ncn(C)c2C(=O)N2CCC(C)CC2)CC1 | inconclusive: 70.8 µM [inhibitor, single point]
30 | O=C1NC(=O)N(c2ccc(Cl)cc2)C(=O)/C1=C\c1ccc(Sc2nc3ccccc3[nH]2)o1 | inconclusive: 25.1 µM [inhibitor, partial curve, poor fit]
31 | Nc1c(C(=O)NCC2CCCO2)c2nc3ccccc3nc2n1Cc1ccco1 (stereo unspecified) | inconclusive: 25.1 µM [inhibitor, single point]
32 | O=[N+]([O-])c1ccc(N2CCCCC2)c2ncccc12 | inactive
33 | Cc1ccc(N2C(=O)CC(=O)NC2=O)c(C)c1 | inconclusive: 35.5 µM [inhibitor, partial curve, poor fit]
34 | Cn1cccc1/C=C1\C(=O)NC(=O)N(Cc2ccccc2Cl)C1=O | active: 20 µM
35 | O=C1NC(=O)C(=Cc2ccc(-c3cc(Cl)ccc3[N+](=O)[O-])o2)C(=O)N1 | inconclusive: 56.2 µM [inhibitor, partial curve, poor fit]
36 | Cc1cc(C)cc(N2C(=O)/C(=C\c3ccc(N4CCN(C)CC4)o3)C(=O)NC2=S)c1 | active: 31.6 µM
37 | COCCCN1CCN(c2nnc3n2-c2sc(Br)cc2C(c2ccccc2Cl)=NC3)CC1 | inactive
38 | O=P(O)(O)/C=C(\Cl)c1ccccc1 | inconclusive: 35.5 µM [inhibitor, partial curve, poor fit]
39 | C=C(COC(C)=O)CC1CC(O)[C@]2(C)OC3CC4OC5C[C@]6(C)O[C@]7(C)CCC8OC9C[C@]%10(C)OC%11C(C)=CC(=O)OC%11CC%10OC9C[C@@H](C)C8OC7CC6O[C@]5(C)C/C=C\C4OC3CC2O1 (stereo partly specified) | inconclusive: 28.2 µM [inhibitor, partial curve]
40 | O=c1[nH]c(=O)n(Cc2ccccc2)c(O)c1C=NCCCO | inactive
41 | Cc1c(C(=O)c2cccc3ccccc23)c2cccc3c2n1[C@H](CN1CCOCC1)CO3 | inconclusive: 50.1 µM [inhibitor, partial curve, poor fit]
42 | COc1ccc(OC)c(C2=NOC(C(=O)N3CCC4(CC3)OCCO4)C2)c1 (stereo unspecified) | inconclusive: 14.1 µM [inhibitor, partial curve, poor fit]

Row | Compound | Potency
43 | CC/C(CC(c1ccccc1)c1c(O)c2ccccc2oc1=O)=N\NC(N)=S (stereo unspecified) | inconclusive: 112 µM [inhibitor, partial curve, poor fit]
44 | Cc1o[nH]c(=O)c1C[C@@H](N)C(=O)O | inconclusive: 89.1 µM [inhibitor, single point]
45 | CCOc1ccc(N2C(=O)NC(=O)/C(=C\c3ccccc3[N+](=O)[O-])C2=O)cc1 | inconclusive: 12.6 µM [inhibitor, partial curve, poor fit]
46 | O=C1NC(=O)N(c2ccccc2F)C(=O)/C1=C/c1cn(CC(=O)N2CCOCC2)c2ccccc12 | inconclusive: 20 µM [inhibitor, partial curve, poor fit]
47 | CN1CCN(c2ccc(/C=C3\C(=O)NC(=S)N(c4cccc(Br)c4)C3=O)o2)CC1 | inconclusive: 12.6 µM [inhibitor, partial curve, poor fit]
48 | O=S(=O)(NC1CCCCC1)OCC(Cl)(Cl)Cl | inconclusive: 89.1 µM [inhibitor, partial curve, poor fit]
49 | C=CCn1c(O)c(/C=C2\C=Nc3ccccc32)c(=O)[nH]c1=O | inconclusive: 17.8 µM [inhibitor, partial curve, poor fit]
50 | CC(CCc1ccccc1)NC(C)C(O)c1ccc(O)cc1 (stereo unspecified) | inconclusive: 100 µM [inhibitor, single point]
51 | CC1(O)CCC2C3CCC4=CC(=O)CCC4=C3C=CC21C (stereo unspecified) | inactive
52 | O=C(O)COc1ccc(Br)cc1C(c1c(C(=O)O)[nH]c2ccccc12)c1c(C(=O)O)[nH]c2ccccc12 | inconclusive: 56.2 µM [inhibitor, single point]
53 | CC1=C(C(=O)O)N2C(=O)[C@@H](NC(=O)CCCC(=O)O)[C@H]2SC1 | inactive
54 | CC(C)(C)c1ccc(O)c(N=Cc2c(O)ccc3ccccc23)c1 | inconclusive: 25.1 µM [inhibitor, single point]
55 | CNCCc1nc(N)n[nH]1 | inconclusive: 35.5 µM [inhibitor, single point]
56 | O=C(c1cccs1)C1CN2CCC1CC2 (stereo unspecified) | inconclusive: 35.5 µM [inhibitor, partial curve, poor fit]
57 | O=c1[nH]cnc2nc(-c3ccc(N(CCCl)CCCl)cc3)[nH]c12 | inconclusive: 22.4 µM [inhibitor, single point]
58 | O=C1NCN(c2ccccc2)C12CCN(CC1COc3ccccc3O1)CC2 (stereo unspecified) | inconclusive: 11.2 µM [inhibitor, full curve]
59 | COc1ccc(SCC2CN(C)CCC2c2ccc(F)cc2)cc1 (stereo unspecified) | inconclusive: 39.8 µM [inhibitor, single point]
60 | CN1C(=O)N(C)C(=O)C2(Sc3ccccc3C2=O)C1=O | inconclusive: 6.31 µM [inhibitor, full curve, poor fit]
61 | C/C=C1/C[C@@H](C)[C@@](C)(O)C(=O)OCC2=CCN3CC[C@@H](OC1=O)[C@@H]23 | inconclusive: 100 µM [inhibitor, partial curve, poor fit]
